Reference: article PMC6237423
No constants are given. Whether binding was seen depends on the method and setting. In cells and extracts the contact can be indirect. Some entries that bind do so weakly or less than the wild type.

Amino acid sequences for entries named in this document (tags omitted).
UniProt P09874: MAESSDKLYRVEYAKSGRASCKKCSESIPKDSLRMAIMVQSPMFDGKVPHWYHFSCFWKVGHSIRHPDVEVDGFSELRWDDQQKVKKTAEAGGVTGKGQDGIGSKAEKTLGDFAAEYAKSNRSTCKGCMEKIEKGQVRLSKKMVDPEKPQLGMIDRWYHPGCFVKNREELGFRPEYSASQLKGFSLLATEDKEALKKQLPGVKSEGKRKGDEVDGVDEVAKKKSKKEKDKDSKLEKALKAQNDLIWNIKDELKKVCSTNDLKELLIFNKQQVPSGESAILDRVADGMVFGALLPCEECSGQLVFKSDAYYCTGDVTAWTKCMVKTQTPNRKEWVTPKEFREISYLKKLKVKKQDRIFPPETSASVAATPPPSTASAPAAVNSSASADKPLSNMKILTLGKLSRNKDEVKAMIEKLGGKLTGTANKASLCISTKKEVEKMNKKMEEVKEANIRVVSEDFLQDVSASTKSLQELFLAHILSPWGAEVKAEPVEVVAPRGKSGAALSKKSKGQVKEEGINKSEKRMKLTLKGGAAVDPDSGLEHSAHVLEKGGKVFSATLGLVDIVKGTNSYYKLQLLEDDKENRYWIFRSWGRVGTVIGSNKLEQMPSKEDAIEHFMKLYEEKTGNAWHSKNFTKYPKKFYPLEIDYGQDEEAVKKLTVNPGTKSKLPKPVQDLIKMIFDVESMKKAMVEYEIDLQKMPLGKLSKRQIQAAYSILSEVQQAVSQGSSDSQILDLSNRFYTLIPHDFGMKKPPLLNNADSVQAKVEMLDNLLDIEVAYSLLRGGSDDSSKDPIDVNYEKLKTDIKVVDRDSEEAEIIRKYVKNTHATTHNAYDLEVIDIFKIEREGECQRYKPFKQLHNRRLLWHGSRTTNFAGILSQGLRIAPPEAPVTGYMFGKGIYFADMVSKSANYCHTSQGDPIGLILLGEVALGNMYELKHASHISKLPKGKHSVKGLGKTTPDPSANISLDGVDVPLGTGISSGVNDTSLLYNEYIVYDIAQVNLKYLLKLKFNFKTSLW
UniProt Q16665: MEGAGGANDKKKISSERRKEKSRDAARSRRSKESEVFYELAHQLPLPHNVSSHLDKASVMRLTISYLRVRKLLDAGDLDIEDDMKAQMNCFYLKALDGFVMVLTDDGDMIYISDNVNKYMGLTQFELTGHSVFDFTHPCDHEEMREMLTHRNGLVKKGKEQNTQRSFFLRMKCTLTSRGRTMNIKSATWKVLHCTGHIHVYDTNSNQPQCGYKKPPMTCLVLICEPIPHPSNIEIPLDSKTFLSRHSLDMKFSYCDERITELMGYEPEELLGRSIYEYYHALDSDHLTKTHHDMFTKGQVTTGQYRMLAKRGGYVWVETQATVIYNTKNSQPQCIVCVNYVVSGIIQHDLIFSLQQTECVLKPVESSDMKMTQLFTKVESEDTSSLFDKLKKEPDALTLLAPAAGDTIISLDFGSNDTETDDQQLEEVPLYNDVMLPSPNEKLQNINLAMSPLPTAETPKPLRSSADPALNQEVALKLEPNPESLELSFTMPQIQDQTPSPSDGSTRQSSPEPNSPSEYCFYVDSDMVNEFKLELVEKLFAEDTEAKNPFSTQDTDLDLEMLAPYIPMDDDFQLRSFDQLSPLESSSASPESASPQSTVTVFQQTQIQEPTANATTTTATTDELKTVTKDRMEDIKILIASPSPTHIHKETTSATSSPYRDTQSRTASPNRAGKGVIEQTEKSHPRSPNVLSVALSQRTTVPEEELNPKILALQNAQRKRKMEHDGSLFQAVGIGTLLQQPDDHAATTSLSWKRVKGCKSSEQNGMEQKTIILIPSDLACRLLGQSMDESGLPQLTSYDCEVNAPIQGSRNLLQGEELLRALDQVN

Target: Poly(ADP-ribose) polymerase 1 (human (endogenous in DG75)) (UniProt P09874)
Experiment: co-IP; DG75 cells, LMP1- and LMP1+ (interaction increased around 40% in LMP1+), 5x10^6 cells in RIPA buffer; supernatant with 5 ug PARP1 antibody (IgG as control) overnight at 4°C, Protein A/G magnetic beads, three washes with RIPA; western blot for HIF-1α

hypoxia-inducible factor 1-alpha (from UniProt Q16665 1-826)
binding: binds
